From patent publication US10278958B2, “IPA as a protective agent” (IXCELA, INC., priority 2012, dated 2019)

Assay: IPA levels in plasma of disease and control subjects (LC-EC array, archived and current studies)
Design: species or system human

O=C(O)CCc1c[nH]c2ccccc12 [IPA, indole-3-propionic acid]
mean IPA (Study 3, plasma, AD N=30): 154.3
mean IPA (Study 3, plasma, Controls n=30): 189.3 ng/mL
mean IPA (Study 4, plasma, ALS and Lower Motor Neuron Disease N=30): 167.8 ng/mL
mean IPA (Study 4, plasma, Controls N=30): 192.3 ng/mL
mean IPA (Study 6, plasma, ALS N=23): 172.0
mean IPA (Study 6, plasma, Control N=27): 201.2
mean IPA (Study 8, plasma, ALS N=48): 172.7
mean IPA (Study 8, plasma, Control N=56): 201.4
mean IPA (Study 10, plasma, Controls N=20): 186.9
mean IPA (Study 10, plasma, Un-medicated PD): 172.2
mean IPA (Study 11, plasma, Controls N=30): 196.01
mean IPA (Study 11, plasma, Un medicated PD): 167.90
mean IPA (Study 12, plasma, ischemic heart subjects N=20, 1 hour post mental stress test): 161.3 ng/mL
mean IPA (Study 13, jugular plasma, Hemorrhagic stroke N=18, contra lateral): 112.09 ng/mL
mean IPA (Study 13, jugular plasma, Hemorrhagic stroke N=18, ipsilateral): 102.1 ng/mL
mean IPA (Study 13, jugular plasma, ischemic stroke n=22, contra lateral): 83.1 ng/mL
mean IPA (Study 13, jugular plasma, ischemic stroke n=22, ipsilateral): 88.7 ng/mL
